One experiment addresses GFP-SAMHD1 (human) (UniProt Q9Y3Z3). In words: affinity purification with mass spectrometry; anti-GFP trapping of lysates of GFP or GFP-SAMHD1 overexpressing HEK293T cells; four washes with NENT300 (300 mM NaCl, 0.1% NP40); on-bead trypsin digestion, nano-LC-MS/MS.
For a further experiment, the target named is CBP-SBP-SAMHD1 (human) (UniProt Q9Y3Z3). Kind of experiment: affinity purification with mass spectrometry; tandem-affinity purification of CBP-SBP-SAMHD1 from HEK293T cells; in-gel digestion; MS.

Chains of the proteins cited; added tags and fusions are not shown.
UniProt Q9Y3Z3: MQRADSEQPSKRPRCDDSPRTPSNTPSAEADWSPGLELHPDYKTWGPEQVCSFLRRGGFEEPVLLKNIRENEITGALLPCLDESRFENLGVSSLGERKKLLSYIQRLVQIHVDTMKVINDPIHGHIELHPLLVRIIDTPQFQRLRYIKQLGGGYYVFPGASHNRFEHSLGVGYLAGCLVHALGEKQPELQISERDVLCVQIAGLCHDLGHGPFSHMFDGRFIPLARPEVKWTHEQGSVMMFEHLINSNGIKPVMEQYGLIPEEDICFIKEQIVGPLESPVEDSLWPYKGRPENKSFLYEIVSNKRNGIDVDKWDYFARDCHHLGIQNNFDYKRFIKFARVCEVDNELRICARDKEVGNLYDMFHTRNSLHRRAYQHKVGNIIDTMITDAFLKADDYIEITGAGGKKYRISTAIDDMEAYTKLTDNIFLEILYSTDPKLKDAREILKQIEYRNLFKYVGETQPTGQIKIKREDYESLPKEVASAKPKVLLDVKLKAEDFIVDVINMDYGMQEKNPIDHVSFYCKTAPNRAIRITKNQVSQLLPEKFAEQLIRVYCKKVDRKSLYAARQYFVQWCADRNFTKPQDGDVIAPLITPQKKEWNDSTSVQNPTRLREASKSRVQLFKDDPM
UniProt P30153: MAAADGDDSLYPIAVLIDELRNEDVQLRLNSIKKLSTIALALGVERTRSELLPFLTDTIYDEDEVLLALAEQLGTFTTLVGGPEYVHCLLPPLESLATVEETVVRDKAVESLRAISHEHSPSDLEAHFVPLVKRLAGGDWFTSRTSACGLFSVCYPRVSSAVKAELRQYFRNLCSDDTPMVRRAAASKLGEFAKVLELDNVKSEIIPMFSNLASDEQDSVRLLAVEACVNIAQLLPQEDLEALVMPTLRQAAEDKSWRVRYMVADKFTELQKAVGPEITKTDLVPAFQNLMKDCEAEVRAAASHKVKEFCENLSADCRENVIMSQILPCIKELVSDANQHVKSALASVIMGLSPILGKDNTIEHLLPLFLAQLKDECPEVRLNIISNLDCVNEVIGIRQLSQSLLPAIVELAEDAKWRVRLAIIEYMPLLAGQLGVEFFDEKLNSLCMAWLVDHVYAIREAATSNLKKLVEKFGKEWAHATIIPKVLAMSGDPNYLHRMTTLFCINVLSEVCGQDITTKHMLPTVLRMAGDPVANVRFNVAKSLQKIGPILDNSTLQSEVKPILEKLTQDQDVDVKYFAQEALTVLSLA

No constants are given. Whether binding was seen depends on the method and setting. In cells and extracts the contact can be indirect. A yes stands for co-enrichment or nearness to the bait. Other partners may have been found.

Turning to “PP2A Aα subunit (from UniProt P30153 1-589)”, the binding entry with GFP-SAMHD1 (human) and with CBP-SBP-SAMHD1 (human) was “binds” each time.

(Values after PMC5993806.)
